In all, about 6,900 compounds went through this assay and fewer than 10 were called active. The call rests on the fitted dose curve; in most records, active means well fitted curve in the direction sought with a large enough effect; inconclusive means small, poorly fitted or top-dose-only effect, or another doubt; inactive means no such curve, though single readings can be large or run the other way. This is one part of the list.
Target: Metallo-beta-lactamase type 2 (Klebsiella pneumoniae) (UniProt C7C422)
Assay: qHTS to identify inhibitors of the New Delhi Metallo-beta-lactamase (NDM): primary screen against the NCATS Gemini Collection; further: % of control where 0% means no effect
Conditions: NDM-1 enzyme, meropenem hydrolysis, absorbance 300 nm; at 38.4 µM (top of the series) unless noted
Procedure, shortened: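 NDM-1 at 2 nM final in 50 mM HEPES pH 7.0, 1 uM ZnSO4, 0.01% Tween20, preincubated >30 min with compound. Meropenem 50 uM final added; absorbance at 300 nm after 30 min.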

Chains of the proteins cited; added tags and fusions are not shown. Lines headed by an entry give the natural chain unless they say otherwise; changes in a name come on top.
UniProt C7C422: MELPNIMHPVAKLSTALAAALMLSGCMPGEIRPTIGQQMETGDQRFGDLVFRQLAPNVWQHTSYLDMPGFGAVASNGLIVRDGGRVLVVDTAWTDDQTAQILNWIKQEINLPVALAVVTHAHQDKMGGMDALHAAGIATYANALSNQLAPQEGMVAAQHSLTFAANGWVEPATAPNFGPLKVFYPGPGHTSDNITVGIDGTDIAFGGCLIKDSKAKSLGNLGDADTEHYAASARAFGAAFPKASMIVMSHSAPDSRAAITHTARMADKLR

Activity % (negative = inhibition), inactive:
COCC[C@]1(O)CCN(C(=O)c2cccc(OC)c2C)C[C@H]1C -4.47%, CN(Cc1cccc(-c2nn[nH]n2)c1)C(=O)c1ccc(C2CCCNC2)cc1 (configuration not stated) -0.815%, C[C@H](C(=O)N1CCOCC1)C1CC[C@@]2(C)Cc3sc(-c4ccccc4)nc3[C@@H](C)[C@@H]2[C@H]1O (some centres not stated) 23.4%, COCC(=O)NC[C@H]1CCN(Cc2cccn2C)C[C@H]1N(C)C 8.18%, O=C(NC1CCCN(C2CCCCCC2)C1)c1ccccc1C(F)(F)F (configuration not stated) 2.98%, COC(=O)[C@@H](Cc1c[nH]c2ccccc12)NC(=O)[C@@H]1CN(C(=O)Nc2ccccc2)CCN1C(=O)NC(C)C 12.2%, CN(C)[C@@H]1CN(C(=O)C2CCCCC2)CC[C@@H]1CO -3.62%, O=C(Nc1cccnc1)c1ccc2c(c1)OCCN(c1cccc(OC(F)(F)F)c1)C2 9.41% [at 57.5 µM], Cc1nnc([C@@H]2CC(F)(F)CN2C(=O)COc2ccccc2)o1 0.585%, CCN1CCN(C(=O)C2CCCN(Cc3cccnc3)CCC(=O)NCC2)CC1 (configuration not stated) 17.8%, Cc1noc(C)c1CC(=O)N1CC[C@@H](NC(=O)c2cnccn2)[C@H](O)C1 3.57%, CN1CCC(C(=O)NCc2c[nH]c3ncccc23)CC1 7.4% [at 57.5 µM], Cc1cc(Cl)ccc1NC1CN(C(=O)OC(C)(C)C)C1 47.6% [at 57.5 µM], COC(=O)[C@H]1CCCN1C(=O)[C@@H]1[C@@H](NC(=O)Nc2ccc(F)cc2F)CCN1C(=O)c1cccn1C 8.61%, Cc1ccc(CNC(=O)Cn2c(N3CCCCC3)nc(C)c(C)c2=O)cc1 8.87%, COc1ccc(-c2nnc3n2CCN(C(=O)c2ccc(Cl)nc2)C3)cc1 -1.28%, CC(=O)c1c(C)nn(CC(=O)NC(C)c2cnn(-c3ccccc3C)c2C)c1C (configuration not stated) 2.03%, Cc1ccc(CN2CCC3(CC2)CN(c2ncccn2)CC3CO)cc1C (configuration not stated) 10.2%, CN(C)Cc1nnc(C2CC(NC(=O)Cc3c[nH]c(=O)n(C)c3=O)C2)n1C (configuration not stated) -2.57%, CN1CCN(C(=O)[C@@H]2CCC[C@@H](NCc3cnn(C)c3)CN(C)C(=O)C2)CC1 3.32% [at 57.5 µM], COc1ccc(CC(=O)Nc2ccc3ncnc(N4CCCC4)c3c2)c(Cl)c1 0.0592%, CC1(c2noc(-c3cccnc3)n2)CCN(C(=O)CCC(=O)N2CC(=O)Nc3ccccc32)CC1 -1.49%

— PubChem BioAssay AID1794845 (National Center for Advancing Translational Sciences (NCATS), 2023)
